According to US5478939A, “(R,R) and (S,S) 2,5-diazabicyclo [2,2,1]heptane derivatives” (priority 1994, dated 1995):

System: muscarinic cholinergic receptor
Assay: [3H] Quinuclidinyl Benzilate (QNB) Binding Assay, cerebral cortex
Settings: ratio of Ki values, 3H-QNB over 3H-CD, rat cerebral cortex

| Structure (SMILES) | Ratio ^3 H-QNB (ctx) / ^3 H-CD (ctx) |
| --- | --- |
| CC(C)(C)OC(=O)N1C[C@H]2C[C@@H]1CN2c1cnccn1 [Example 3, (R,R)-2-(tert-Butyloxycarbonyl)-5-(2-pyrazinyl)-2,5-diazabicyclo[2.2.1]heptane] | > 100 |
| Cl.c1cnc(N2C[C@H]3C[C@@H]2CN3)cn1 [Example 11, (R,R)-2-(2-Pyrazinyl)-2,5-diazabicyclo[2.2.1]heptane hydrochloride] | 53.7 |
| Cl.c1cnc(N2C[C@@H]3C[C@H]2CN3)cn1 [Example 12, (S,S)-2-(2-Pyrazinyl)-2,5-diazabicyclo[2.2.1]heptane hydrochloride] | 8.8 |
| Cc1nsc(N2C[C@H]3C[C@@H]2CN3)n1 [Example 14, (R,R)-2-(3-Methyl-1,2,4-thiadiazol-5-yl)-2,5-diazabicyclo[2.2.1]heptane] | 29 |
| Cc1noc(N2C[C@H]3C[C@@H]2CN3)n1 [Example 18, (R,R)-2-(3-Methyl-1,2,4-oxadiazol-5-yl)-2,5-diazabicyclo[2.2.1]heptane] | 108.2 |
| CN1C[C@@H]2C[C@H]1CN2c1cnccn1 [Example 19, (S,S)-2-Methyl-5-(2-pyrazinyl)-2,5-diazabicyclo[2.2.1]heptane] | 13.8 |
| Cc1cnc(C)c(N2C[C@@H]3C[C@H]2CN3C)n1 [Example 22, (S,S)-2-(3,6-Dimethylpyrazin-2-yl)-5-methyl-2,5-diazabicyclo[2,2.1]heptane] | 1.9 |
| CN1C[C@@H]2C[C@H]1CN2c1nccnc1Cl [Example 23, (S,S)-2-(3-Chloropyrazin-2-yl)-5-methyl-2,5-diazabicyclo[2.2.1]heptane] | 2.6 |
| CN1C[C@@H]2C[C@H]1CN2c1cncc(Cl)n1 [Example 24, (S,S)-2-(6-Chloropyrazin-2-yl)-5-methyl-2.5-diazabicyclo[2.2.1]heptane] | 2.3 |
| Cc1nsc(N2C[C@@H]3C[C@H]2CN3C)n1 [Example 26, (S,S)-2-Methyl-5-(3-methyl-1,2,4-thiadiazol-5-yl)-2,5-diazabicyclo[2.2.1]heptane] | 2.7 |
| CN1C[C@@H]2C[C@H]1CN2c1ccc([N+](=O)[O-])s1 [Example 29, (S,S)-2-Methyl-5-(5-nitro-2-thienyl)-2,5-diazabicyclo[2.2.1]heptane] | 1.9 |
| CN1C[C@@H]2C[C@H]1CN2c1ccccc1[N+](=O)[O-] [Example 30, (S,S)-2-Methyl-5-(2-nitrophenyl)-2,5-diazabicyclo[2.2.1]heptane] | 1.5 |
| COc1cncc(N2C[C@@H]3C[C@H]2CN3C)n1 [Example 32, (S,S)-2-Methyl-5-(6-methoxypyrazin-2-yl)-2,5-diazabicyclo[2.2.1]heptane] | 1.3 |
| Cc1nccnc1N1C[C@@H]2C[C@H]1CN2C [Example 35, (S,S)-2-Methyl-5-(3-methylpyrizin-2-yl)-2,5-diazabicyclo[2.2.1]heptane] | 3.7 |
